Measured values taken from the supplement of paper PMC10849652.
This is one part of the list. Residues, ends and D or L forms follow the SMILES beside them. *: point of attachment. Cbz = O=C(OCc1ccccc1)*

Sequences of proteins named here, by UniProt entry; tags and fusion partners are left off. A change or cut given only in a name is not applied to a line headed by its entry.
UniProt Q70CQ2: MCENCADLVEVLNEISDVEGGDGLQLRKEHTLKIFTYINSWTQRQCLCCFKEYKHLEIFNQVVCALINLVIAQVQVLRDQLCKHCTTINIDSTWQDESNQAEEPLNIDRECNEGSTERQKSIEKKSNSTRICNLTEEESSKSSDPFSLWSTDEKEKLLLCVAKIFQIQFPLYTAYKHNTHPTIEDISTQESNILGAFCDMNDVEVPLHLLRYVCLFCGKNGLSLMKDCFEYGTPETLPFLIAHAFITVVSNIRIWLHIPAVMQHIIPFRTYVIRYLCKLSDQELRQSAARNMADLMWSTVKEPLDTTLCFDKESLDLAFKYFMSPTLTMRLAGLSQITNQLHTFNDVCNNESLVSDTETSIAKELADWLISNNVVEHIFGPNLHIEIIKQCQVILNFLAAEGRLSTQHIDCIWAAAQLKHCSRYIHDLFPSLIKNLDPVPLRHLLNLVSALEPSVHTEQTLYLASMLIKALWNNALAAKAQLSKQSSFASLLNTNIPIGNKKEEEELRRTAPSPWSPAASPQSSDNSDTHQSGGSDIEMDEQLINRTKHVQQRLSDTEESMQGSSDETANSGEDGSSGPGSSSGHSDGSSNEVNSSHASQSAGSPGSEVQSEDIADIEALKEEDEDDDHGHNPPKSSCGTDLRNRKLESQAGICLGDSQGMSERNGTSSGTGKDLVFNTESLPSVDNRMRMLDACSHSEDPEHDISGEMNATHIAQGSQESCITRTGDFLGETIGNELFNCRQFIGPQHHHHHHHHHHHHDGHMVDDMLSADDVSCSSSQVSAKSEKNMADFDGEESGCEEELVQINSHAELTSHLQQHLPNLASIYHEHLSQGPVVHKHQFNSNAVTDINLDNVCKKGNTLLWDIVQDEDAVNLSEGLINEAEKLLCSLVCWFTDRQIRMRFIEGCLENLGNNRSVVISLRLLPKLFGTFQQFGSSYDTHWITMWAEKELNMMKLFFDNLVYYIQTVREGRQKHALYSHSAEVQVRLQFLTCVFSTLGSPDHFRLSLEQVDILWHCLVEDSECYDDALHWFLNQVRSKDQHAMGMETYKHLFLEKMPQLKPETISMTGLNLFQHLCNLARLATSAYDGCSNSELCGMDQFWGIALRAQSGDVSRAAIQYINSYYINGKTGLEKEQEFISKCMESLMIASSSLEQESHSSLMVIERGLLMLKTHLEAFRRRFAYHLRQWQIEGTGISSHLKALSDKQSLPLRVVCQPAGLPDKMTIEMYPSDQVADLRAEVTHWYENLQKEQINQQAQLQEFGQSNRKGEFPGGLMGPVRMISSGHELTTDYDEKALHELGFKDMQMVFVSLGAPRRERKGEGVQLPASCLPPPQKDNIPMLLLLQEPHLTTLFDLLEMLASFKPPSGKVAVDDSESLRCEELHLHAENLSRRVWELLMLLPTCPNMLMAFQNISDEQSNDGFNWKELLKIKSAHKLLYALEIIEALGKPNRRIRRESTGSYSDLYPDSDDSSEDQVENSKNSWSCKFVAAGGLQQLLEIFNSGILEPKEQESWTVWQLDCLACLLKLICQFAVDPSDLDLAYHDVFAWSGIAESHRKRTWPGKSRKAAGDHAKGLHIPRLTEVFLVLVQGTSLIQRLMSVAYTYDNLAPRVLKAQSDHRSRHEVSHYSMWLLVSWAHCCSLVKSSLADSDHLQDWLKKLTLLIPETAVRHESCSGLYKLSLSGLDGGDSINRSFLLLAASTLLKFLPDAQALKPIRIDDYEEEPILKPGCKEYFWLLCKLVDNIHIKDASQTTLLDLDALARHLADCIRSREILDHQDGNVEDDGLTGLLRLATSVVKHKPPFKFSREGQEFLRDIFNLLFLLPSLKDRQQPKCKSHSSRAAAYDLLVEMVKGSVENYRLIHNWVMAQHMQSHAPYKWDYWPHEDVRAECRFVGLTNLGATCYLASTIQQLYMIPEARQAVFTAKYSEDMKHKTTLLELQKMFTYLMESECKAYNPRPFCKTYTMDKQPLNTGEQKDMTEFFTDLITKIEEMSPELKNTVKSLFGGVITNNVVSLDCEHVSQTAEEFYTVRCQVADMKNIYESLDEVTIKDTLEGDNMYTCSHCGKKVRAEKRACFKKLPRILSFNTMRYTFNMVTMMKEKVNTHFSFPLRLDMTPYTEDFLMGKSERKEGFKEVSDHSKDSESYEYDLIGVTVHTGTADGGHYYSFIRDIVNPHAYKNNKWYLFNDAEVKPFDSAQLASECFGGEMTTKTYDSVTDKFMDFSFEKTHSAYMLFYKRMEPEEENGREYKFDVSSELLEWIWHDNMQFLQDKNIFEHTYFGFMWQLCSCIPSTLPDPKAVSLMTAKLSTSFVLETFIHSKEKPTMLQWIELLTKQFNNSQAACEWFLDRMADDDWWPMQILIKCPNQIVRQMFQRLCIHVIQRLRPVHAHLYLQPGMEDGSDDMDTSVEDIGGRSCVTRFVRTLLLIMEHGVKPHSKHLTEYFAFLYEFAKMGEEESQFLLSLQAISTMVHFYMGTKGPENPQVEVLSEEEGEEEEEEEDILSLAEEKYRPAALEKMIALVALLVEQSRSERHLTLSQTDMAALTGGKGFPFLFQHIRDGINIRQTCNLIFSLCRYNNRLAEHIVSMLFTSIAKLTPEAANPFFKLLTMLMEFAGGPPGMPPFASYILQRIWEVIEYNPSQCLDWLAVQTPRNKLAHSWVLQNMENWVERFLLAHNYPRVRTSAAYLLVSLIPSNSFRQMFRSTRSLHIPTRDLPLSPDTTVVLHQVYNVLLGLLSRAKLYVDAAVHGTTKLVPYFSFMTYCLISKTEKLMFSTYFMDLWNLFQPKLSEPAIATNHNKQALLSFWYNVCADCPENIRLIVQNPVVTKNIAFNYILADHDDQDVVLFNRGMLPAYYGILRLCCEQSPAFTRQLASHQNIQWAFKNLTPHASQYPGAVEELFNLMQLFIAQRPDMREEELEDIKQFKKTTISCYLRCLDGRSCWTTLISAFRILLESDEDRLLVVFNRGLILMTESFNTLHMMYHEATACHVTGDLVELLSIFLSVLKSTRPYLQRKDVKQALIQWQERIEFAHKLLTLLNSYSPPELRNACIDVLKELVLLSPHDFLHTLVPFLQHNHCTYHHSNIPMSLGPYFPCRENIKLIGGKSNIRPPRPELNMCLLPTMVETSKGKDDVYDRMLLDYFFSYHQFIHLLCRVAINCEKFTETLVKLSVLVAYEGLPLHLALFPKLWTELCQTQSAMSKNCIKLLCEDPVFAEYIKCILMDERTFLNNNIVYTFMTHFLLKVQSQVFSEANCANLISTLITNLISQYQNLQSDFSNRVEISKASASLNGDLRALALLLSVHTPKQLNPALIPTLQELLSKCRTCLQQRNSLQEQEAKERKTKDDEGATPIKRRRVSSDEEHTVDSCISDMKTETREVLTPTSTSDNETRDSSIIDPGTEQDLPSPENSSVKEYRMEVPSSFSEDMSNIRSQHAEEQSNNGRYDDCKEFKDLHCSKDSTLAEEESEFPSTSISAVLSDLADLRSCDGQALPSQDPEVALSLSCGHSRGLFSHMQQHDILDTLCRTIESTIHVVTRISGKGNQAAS
UniProt Q6BDS2: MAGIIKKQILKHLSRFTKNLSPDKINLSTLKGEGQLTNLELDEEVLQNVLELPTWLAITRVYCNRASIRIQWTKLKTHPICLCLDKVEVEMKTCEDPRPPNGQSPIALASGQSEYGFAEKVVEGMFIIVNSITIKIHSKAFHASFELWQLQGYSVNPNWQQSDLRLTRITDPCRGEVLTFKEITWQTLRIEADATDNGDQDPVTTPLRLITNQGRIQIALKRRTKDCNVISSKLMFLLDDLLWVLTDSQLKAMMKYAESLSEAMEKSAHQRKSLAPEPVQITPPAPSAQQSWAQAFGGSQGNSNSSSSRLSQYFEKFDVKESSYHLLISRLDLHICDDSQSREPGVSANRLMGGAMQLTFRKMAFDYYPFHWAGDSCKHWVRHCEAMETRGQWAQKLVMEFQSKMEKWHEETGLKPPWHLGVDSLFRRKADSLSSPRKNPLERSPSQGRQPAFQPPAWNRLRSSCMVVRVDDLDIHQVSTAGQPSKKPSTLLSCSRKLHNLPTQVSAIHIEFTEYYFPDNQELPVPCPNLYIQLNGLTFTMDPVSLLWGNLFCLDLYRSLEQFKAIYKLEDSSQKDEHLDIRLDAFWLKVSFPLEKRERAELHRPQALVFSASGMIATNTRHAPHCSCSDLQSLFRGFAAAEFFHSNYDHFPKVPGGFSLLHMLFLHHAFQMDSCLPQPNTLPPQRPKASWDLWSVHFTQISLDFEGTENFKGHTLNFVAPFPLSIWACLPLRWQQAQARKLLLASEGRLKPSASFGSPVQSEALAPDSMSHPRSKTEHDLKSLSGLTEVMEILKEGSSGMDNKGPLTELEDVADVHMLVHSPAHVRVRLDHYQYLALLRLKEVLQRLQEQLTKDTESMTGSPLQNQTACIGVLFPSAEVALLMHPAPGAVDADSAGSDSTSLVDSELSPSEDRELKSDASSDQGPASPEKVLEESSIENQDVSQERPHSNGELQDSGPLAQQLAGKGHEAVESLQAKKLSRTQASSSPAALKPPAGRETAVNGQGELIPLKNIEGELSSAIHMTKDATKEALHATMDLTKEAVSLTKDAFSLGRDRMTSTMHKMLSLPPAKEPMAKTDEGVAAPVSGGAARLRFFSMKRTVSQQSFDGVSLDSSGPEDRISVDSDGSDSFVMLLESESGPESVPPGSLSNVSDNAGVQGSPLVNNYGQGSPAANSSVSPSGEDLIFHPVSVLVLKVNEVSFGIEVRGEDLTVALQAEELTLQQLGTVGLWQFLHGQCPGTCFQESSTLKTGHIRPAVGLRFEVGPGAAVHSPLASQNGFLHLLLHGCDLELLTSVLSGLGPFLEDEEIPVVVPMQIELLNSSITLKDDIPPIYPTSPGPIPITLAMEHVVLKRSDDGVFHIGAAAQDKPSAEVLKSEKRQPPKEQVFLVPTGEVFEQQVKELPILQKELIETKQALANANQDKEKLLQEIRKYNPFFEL
UniProt Q9Y5K5, whole entry, looked up: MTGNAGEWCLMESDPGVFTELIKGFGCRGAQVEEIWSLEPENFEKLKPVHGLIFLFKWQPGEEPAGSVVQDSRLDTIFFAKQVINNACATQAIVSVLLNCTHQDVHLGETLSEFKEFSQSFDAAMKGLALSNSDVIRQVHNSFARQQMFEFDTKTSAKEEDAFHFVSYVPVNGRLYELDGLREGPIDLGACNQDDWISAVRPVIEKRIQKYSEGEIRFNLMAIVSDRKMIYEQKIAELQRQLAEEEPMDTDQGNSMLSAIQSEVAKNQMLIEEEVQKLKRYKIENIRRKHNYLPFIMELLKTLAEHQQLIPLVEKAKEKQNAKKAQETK
UniProt P22415: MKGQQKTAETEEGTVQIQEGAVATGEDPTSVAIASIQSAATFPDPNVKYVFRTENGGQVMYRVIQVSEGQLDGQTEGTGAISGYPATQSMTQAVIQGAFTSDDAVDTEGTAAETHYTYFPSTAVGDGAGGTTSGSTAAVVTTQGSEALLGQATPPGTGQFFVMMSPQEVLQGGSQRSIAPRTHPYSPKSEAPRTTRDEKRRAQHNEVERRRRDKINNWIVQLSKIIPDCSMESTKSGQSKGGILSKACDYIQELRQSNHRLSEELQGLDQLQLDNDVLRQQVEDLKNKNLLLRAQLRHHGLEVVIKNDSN
UniProt Q92738: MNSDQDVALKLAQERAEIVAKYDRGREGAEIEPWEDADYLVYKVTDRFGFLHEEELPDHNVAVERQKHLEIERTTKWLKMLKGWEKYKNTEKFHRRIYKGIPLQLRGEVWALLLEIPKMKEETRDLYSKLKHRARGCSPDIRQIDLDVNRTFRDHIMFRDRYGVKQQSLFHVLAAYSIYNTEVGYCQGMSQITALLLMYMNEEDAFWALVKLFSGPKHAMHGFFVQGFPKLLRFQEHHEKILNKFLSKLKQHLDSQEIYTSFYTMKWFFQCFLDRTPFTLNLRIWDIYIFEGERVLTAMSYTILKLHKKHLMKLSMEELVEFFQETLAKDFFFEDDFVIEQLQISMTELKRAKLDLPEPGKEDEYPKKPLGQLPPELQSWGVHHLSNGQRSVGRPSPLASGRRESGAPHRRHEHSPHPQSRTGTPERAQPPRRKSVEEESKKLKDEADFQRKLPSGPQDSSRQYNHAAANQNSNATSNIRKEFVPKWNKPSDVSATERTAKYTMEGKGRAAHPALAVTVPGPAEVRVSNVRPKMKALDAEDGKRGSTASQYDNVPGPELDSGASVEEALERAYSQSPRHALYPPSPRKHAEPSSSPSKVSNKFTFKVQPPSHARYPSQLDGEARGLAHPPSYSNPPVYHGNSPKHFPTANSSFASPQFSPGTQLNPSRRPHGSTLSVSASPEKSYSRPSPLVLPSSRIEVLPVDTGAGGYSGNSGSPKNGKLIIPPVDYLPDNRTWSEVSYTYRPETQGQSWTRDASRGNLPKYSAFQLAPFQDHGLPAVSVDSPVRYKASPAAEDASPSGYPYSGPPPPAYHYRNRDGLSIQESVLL
UniProt Q9UDW1: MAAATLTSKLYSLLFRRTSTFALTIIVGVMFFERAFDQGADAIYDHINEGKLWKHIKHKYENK

What was measured:
Assay in all cases: log2 fold change, soluble protein after heating vs DMSO (PISA); higher = thermal stabilisation; K562 cells, 10 uM, 30 min; active = over 0.2 and 3.5 SD of the protein, either way, in both replicates (recomputed)
erlotinib = compound: C#Cc1cccc(Nc2ncnc3cc(OCCOC)c(OCCOC)cc23)c1 [erlotinib]
Procedure, shortened: (§1)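 K562 cells at 2×10^6 cells/mL were treated for 30 min with 10 μM compound, and aliquots were heated for 3 min over 48°C-58°C before pooling. Extraction used PBS with 0.5% NP-40 at 4°C, and soluble protein was the supernatant after 21,000xg for 90 min, measured by TMTpro 16plex LC-MS/MS with channel sums equalised. Thermal stability values, relative to control samples and from duplicates, are log2 fold changes.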

[1] = compound: C/C(=N\NC(=O)C1=CC(=CC=C1)S(=O)(=O)N2CCOCC2)/C3=C(C=CC(=C3)Cl)O
Procedure, shortened: as §1

[2] = compound: C1=CC(=C(C=C1Cl)C2=NC3=NC=CN=C3C(=N2)NC4=CC=NC=C4)F
Procedure, shortened: as §1

[3] = compound: C1=CC(=CC=C1C2=NC3=C(N2)C=C(C=C3)C(=O)N)OC4=CC=C(C=C4)Cl
Procedure, shortened: as §1

[4] = compound: C1=CC2=C(C=CC(=C2)/C=C\3/C(=O)NC(=NCC4=CC=CS4)S3)N=C1
Procedure, shortened: as §1

[5] = compound: C1=CC=C(C=C1)C2=NC(=C(N2)C3=CC=NC=C3)C4=CC(=C(C=C4)Cl)O
Procedure, shortened: as §1

[6] = compound: C1=CC=C2C(=C1)C3=NNC4=CC=CC(=C43)C2=O
Procedure, shortened: as §1

[7] = compound: C1CCN(C1)C(=O)NC2=CC=CC(=C2)NC3=NC=C(C(=N3)NCCC4=CN=CN4)Br
Procedure, shortened: as §1

[8] = compound: C1CN(CCC1(CC2=CC=C(C=C2)Cl)N)C3=NC=NC4=C3C=CN4
Procedure, shortened: as §1

[9] = compound: CC(=O)c1cnc2ccc(-c3cc(Cl)c(O)c(Cl)c3)nc2c1N[C@H]1CC[C@H](CN(C)C)CC1
Procedure, shortened: as §1

ralimetinib = compound: CC(C)(C)Cn1c(N)nc2ccc(-c3[nH]c(C(C)(C)C)nc3-c3ccc(F)cc3)nc21 [ralimetinib]
Procedure, shortened: as §1

[10] = compound: CC(C)(O)CC(=O)NCCn1ccc2ncnc(Nc3ccc(Oc4cccc(C(F)(F)F)c4)c(Cl)c3)c21
Procedure, shortened: as §1

[11] = compound: CC(C)C1=C2N=C(C=C(N2N=C1)NCC3=CC=CC=C3)NCCCCCCN
Procedure, shortened: as §1

[12] = compound: CC(C)C[C@@H](C=O)NC(=O)[C@H](CC(C)C)NC(=O)[C@H](CC(C)C)NC(=O)OCc1ccccc1
Procedure, shortened: as §1

[13] = compound: CC1=C(C2=C(C=C1)C(=O)C3=CC=CC=C3N2CCCN)C
Procedure, shortened: as §1

[14] = compound: C1=CC2=NC=CN=C2C=C1/C=C/3\C(=O)NC(=O)S3
Procedure, shortened: as §1

IRAK-1-4 Inhibitor I = compound: C1COCCN1CCN2C3=CC=CC=C3N=C2NC(=O)C4=CC(=CC=C4)[N+](=O)[O-] [IRAK-1-4 Inhibitor I]
Procedure, shortened: as §1

ibrutinib = compound: C=CC(=O)N1CCC[C@@H](n2nc(-c3ccc(Oc4ccccc4)cc3)c3c(N)ncnc32)C1 [ibrutinib]
Procedure, shortened: as §1

pinometostat = compound: CC(C)N(C[C@H]1O[C@@H](n2cnc3c(N)ncnc32)[C@H](O)[C@@H]1O)[C@H]1C[C@@H](CCc2nc3cc(C(C)(C)C)ccc3[nH]2)C1 [pinometostat]
Procedure, shortened: as §1

[15] = compound: CC1=C(C(CC(=O)N1)C2=CC=C(C=C2)C(F)(F)F)C(=O)NC3=C(C=C4C(=C3)C=NN4)F
Procedure, shortened: as §1

Measured: log2 fold change

VAV1 (UniProt P15498)
inactive: erlotinib -0.262 | [1] 0.149 | [2] -0.163 | [3] 0.086 | [4] 0.107 | [5] -0.091 | [6] 0.001 | [7] -0.183 | [8] -0.215 | [9] -0.162 | ralimetinib 0.081 | [10] -0.023 | [11] -0.25 | [12] -0.062 | [13] -0.195

USP34 (UniProt Q70CQ2)
inactive: erlotinib 0.065 | [1] 0.074 | [2] 0.026 | [3] -0.02 | [4] 0.145 | [14] -0.013 | [5] 0.027 | [6] -0.043 | [7] 0.015 | [8] -0.086 | IRAK-1-4 Inhibitor I 0.005 | ibrutinib -0.091 | [9] -0.033 | ralimetinib -0.017 | [10] -0.14 | [11] -0.114 | [12] -0.016 | pinometostat 0.079 | [13] -0.176

UHRF1BP1 (UniProt Q6BDS2)
active: [11] 0.258
inactive: erlotinib -0.018 | [1] -0.01 | [2] 0.011 | [3] 0.033 | [4] 0.001 | [14] 0.008 | [5] -0.017 | [6] -0.009 | [7] -0.013 | [8] 0.008 | IRAK-1-4 Inhibitor I 0.007 | ibrutinib 0.023 | [9] -0.034 | ralimetinib -0.067 | [10] 0.097 | [12] 0.03 | pinometostat 0.006 | [13] 0.029

UCHL5 isoform 3 (UniProt Q9Y5K5)
inactive: erlotinib 0.047 | [1] 0.106 | [2] 0.415 | [3] -0.124 | [4] -0.036 | [14] 0.125 | [5] -0.11 | [6] 0.102 | [7] 0.207 | [8] -0.103 | IRAK-1-4 Inhibitor I -0.012 | ibrutinib -0.222 | [9] -0.021 | ralimetinib 0.006 | [10] -0.357 | [11] -0.143 | [12] 0.077 | pinometostat -0.044 | [13] 0.028

USF1 (UniProt P22415)
inactive: erlotinib 0.161 | [1] 0.087 | [2] -0.151 | [3] 0.166 | [4] 0.219 | [14] -0.076 | [5] 0.103 | [6] 0.053 | IRAK-1-4 Inhibitor I 0.007 | ibrutinib -0.001 | [9] -0.065 | ralimetinib 0.064 | [10] 0.112 | [11] -0.073 | [12] 0.044 | pinometostat 0.022 | [15] 0.087

UBE3D (UniProt Q7Z6J8)
inactive: erlotinib -0.014 | [1] -0.018 | [2] 0.033 | [3] 0.022 | [4] 0.003 | [14] -0.076 | [5] 0.013 | [6] -0.006 | [7] -0.114 | [8] 0.079 | IRAK-1-4 Inhibitor I 0.029 | ibrutinib 0.047 | [9] 0.026 | ralimetinib 0.015 | [10] 0.088 | [11] 0.011 | [12] -0.061 | pinometostat -0.012 | [13] 0.051

USP6NL isoform 2 (UniProt Q92738)
inactive: erlotinib 0.156 | [1] -0.1 | [2] -0.016 | [3] 0.044 | [4] -0.034 | [5] -0.032 | [6] 0.066 | [7] -0.11 | [8] 0.084 | IRAK-1-4 Inhibitor I -0.464 | [9] -0.429 | ralimetinib 0.006 | [10] -0.105 | [11] -0.122 | [12] 0.064 | pinometostat -0.064 | [15] 0.118 | [13] 0.163

UQCR10 (UniProt Q9UDW1)
inactive: erlotinib -0.026 | [1] 0.056 | [2] 0.069 | [3] -0.023 | [4] 0.034 | [14] 0.014 | [5] 0.046 | [6] -0.003 | [7] 0.006 | [8] 0 | IRAK-1-4 Inhibitor I 0.036 | ibrutinib 0.019 | [9] -0.077 | ralimetinib -0.05 | [10] -0.056 | [11] 0.031 | [12] -0.127 | pinometostat -0.016 | [13] 0.057

USP32 (UniProt Q8NFA0)
inactive: erlotinib 0.389 | [1] -0.181 | [2] 0.102 | [3] -0.232 | [4] -0.182 | [5] 0 | [6] 0.06 | [7] 0.014 | [8] -0.08 | IRAK-1-4 Inhibitor I -0.13 | [9] -0.057 | ralimetinib -0.06 | [10] -0.085 | [11] 0.201 | [12] 0.129 | pinometostat 0.017 | [15] -0.005 | [13] 0.04
